Assay results published in US20130230533A1.
Results are given in words; binding and its absence hold for the method and conditions named. Some results given as binding are weak or reduced against the parent protein; the word gives no strength.

Tests used:
Assay in all cases: SPR (Biacore), 25 C and 37 C
[1] = target: Monomeric monkey CD48-mmH (monkey)
[2] = target: Dimeric monkey CD48-mFc (monkey)
[3] = target: Monomeric human CD48-mmH (human)
[4] = target: Dimeric human CD48-mFc (human)

binding [1]	binding [2]	binding [3]	binding [4]	Binder
binds	binds	binds	binds	H4H1713N (antibody, human IgG4, V domains shown) VH: QVQLVQSGAEVKKPGASVKVSCKASGHTFTNYYIHWVRQAPGQGLEWMGITNPNDGNTRYAQKFQGRISMTWDTSTSTVFMELSSLKSEDTAVYYCAGLRYWFFDLWGRGTPVTVSS VL: DIQMTQSPSSVSASVGDRVTITCRASQDISSWLAWYQQKPGKAPNLLIFAASSLQSGVPSRFSGSGSGTDFTLTISSLQPEDFGTYYCQQTDNFPRTFGQGTKVEIN
binds	binds	binds		H4H1763N (antibody, human IgG4, V domains shown) VH: QIQLVQSGAEMKRPGTSVKVSCKASGYTFTSYGINWVRQAPGQGLEWMGWISAYNGDTNYAQKLQGRVTMTTDTSTTTAYMEVRSLRSDDTAVYYCARFLTGTKDYYYGMDVWGQGTTVTVSS VL: DIQMTQSPSSLSASVGDRVTITCQASQDISNFLNWYQQKPGKAPDLLINDASILETGVPSRFSGSGSGTDFTLTINNLQPEDIATYYCQQYDNLPLTFGGGTKVEIK
binds	binds	binds	binds	H4H1707N (antibody, human IgG4, V domains shown) VH: EGQLLESGGGLAQPGGSLRLSCAASGITFGRYAMSWVRQAPGKGLEWVSLISGSGGSTYHADSVKGRFTISRDNSKNTLYLQMNSLRAEDTAVYYCAIYNNYNWFDPWGQGTLVTVSS VL: EIVLTQSPGTLSLSPGERATLSCRASQSVSSNYLAWYQQKPGQAPRLLIYDASSRATDIPDRFSGSGSGTDFTLTISRLEPEDFAVYYCQQYGSSPRTFGQGTKVEIK
